Measured values reported in the supplement of paper PMC10849652.
This is one part of the list.

By UniProt entry, the sequences of proteins in these tests, tags left out. Where a name states a change or a piece, a line headed by the entry shows the natural chain unless it says otherwise.
UniProt Q9H8T0: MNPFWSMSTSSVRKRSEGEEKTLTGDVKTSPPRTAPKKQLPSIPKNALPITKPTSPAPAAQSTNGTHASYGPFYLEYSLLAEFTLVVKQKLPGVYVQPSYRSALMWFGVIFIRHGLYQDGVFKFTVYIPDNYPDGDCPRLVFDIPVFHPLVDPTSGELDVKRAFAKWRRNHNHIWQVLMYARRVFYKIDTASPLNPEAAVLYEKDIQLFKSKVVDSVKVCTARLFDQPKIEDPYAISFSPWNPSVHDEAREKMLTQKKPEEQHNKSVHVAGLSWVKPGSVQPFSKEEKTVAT
UniProt P49419: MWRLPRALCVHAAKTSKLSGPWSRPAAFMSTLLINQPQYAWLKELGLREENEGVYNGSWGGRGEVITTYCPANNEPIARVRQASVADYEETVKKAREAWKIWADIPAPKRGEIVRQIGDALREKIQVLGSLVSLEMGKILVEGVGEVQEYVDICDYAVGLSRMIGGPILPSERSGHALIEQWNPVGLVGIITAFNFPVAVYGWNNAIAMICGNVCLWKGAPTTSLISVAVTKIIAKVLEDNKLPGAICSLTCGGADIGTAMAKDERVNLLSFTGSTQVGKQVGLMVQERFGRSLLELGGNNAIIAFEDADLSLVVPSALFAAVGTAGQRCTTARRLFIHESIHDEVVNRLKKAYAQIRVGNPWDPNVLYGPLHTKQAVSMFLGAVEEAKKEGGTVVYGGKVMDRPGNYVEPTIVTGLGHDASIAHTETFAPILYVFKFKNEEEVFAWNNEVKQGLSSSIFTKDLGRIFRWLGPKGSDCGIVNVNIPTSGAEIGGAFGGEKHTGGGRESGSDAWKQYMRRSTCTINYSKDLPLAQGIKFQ
UniProt Q6RW13: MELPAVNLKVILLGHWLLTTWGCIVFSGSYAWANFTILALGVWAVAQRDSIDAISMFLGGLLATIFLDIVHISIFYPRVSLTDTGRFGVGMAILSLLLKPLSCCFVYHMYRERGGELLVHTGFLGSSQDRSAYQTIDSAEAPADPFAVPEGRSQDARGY
UniProt Q9Y303: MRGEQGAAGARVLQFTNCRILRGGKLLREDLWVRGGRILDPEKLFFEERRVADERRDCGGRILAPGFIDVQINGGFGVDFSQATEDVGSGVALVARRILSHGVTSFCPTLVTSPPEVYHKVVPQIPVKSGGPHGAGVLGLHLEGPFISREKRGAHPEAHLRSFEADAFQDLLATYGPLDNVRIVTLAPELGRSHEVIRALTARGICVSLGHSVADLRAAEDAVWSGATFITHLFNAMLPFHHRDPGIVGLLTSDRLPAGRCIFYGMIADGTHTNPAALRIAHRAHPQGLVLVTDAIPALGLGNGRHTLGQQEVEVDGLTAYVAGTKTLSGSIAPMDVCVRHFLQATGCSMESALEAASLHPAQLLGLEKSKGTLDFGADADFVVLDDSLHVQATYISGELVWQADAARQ
UniProt P35612: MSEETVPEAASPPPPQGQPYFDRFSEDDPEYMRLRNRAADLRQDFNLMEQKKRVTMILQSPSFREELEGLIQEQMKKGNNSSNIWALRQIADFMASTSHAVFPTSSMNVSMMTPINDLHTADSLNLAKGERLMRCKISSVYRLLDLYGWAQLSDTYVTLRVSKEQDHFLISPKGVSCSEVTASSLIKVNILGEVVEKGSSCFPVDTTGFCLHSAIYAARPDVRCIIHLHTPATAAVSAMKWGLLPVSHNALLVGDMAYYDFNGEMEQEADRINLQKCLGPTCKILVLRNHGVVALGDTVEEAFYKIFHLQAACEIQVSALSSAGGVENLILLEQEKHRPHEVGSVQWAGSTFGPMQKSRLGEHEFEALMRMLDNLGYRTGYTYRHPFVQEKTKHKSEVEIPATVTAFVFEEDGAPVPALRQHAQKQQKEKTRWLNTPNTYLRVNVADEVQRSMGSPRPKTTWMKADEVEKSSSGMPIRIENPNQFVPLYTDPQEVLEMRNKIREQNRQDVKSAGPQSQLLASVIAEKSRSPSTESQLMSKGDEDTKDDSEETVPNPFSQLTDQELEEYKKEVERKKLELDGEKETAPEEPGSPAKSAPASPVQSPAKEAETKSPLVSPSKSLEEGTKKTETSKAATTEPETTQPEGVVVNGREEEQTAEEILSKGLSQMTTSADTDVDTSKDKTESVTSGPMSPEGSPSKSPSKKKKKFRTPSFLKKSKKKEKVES
UniProt P05091: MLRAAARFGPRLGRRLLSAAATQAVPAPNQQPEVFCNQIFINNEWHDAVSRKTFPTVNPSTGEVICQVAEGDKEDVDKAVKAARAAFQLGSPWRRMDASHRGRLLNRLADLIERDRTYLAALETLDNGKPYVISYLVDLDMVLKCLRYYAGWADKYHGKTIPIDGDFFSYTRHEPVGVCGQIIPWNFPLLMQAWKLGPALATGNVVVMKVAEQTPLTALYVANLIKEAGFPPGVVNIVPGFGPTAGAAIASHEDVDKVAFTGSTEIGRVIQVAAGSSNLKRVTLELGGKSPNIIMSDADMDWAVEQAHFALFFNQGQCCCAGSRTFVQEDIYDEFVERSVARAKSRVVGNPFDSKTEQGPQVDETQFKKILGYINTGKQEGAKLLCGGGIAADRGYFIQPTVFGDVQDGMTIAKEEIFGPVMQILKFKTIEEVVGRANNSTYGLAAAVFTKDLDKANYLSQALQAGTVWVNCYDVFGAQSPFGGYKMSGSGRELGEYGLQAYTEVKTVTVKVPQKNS
UniProt Q86W34: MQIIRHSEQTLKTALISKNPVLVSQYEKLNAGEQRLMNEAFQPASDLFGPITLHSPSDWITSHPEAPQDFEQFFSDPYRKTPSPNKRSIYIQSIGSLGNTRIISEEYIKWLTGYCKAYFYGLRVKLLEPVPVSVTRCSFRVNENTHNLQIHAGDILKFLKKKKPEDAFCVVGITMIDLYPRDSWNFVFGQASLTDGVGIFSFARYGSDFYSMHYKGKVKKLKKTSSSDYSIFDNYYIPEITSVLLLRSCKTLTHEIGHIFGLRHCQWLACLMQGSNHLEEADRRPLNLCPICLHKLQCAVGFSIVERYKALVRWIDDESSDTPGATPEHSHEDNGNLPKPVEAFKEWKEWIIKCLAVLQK
UniProt Q6QNK2: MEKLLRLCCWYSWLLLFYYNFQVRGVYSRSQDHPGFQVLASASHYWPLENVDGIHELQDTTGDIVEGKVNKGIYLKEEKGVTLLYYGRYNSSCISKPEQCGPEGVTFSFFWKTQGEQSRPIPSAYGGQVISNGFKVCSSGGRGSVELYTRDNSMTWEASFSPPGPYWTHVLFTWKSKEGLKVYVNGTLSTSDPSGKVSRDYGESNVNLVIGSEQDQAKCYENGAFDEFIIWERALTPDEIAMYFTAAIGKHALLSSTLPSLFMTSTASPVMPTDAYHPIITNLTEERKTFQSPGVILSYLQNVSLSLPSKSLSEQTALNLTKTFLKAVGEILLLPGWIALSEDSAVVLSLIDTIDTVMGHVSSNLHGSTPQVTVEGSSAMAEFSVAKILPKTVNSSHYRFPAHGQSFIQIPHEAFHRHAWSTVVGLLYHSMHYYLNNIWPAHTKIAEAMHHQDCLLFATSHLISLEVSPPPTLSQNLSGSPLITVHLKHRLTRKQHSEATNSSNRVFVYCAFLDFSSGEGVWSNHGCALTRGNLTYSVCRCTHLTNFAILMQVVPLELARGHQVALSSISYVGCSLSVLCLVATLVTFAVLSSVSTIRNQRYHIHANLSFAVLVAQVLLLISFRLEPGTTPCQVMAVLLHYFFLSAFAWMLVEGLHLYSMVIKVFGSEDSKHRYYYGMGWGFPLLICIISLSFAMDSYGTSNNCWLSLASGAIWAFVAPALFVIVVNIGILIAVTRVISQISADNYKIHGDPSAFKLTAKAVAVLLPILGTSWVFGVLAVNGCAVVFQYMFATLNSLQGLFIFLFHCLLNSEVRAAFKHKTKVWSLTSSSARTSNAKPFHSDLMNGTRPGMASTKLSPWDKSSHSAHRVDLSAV
UniProt Q96BT7: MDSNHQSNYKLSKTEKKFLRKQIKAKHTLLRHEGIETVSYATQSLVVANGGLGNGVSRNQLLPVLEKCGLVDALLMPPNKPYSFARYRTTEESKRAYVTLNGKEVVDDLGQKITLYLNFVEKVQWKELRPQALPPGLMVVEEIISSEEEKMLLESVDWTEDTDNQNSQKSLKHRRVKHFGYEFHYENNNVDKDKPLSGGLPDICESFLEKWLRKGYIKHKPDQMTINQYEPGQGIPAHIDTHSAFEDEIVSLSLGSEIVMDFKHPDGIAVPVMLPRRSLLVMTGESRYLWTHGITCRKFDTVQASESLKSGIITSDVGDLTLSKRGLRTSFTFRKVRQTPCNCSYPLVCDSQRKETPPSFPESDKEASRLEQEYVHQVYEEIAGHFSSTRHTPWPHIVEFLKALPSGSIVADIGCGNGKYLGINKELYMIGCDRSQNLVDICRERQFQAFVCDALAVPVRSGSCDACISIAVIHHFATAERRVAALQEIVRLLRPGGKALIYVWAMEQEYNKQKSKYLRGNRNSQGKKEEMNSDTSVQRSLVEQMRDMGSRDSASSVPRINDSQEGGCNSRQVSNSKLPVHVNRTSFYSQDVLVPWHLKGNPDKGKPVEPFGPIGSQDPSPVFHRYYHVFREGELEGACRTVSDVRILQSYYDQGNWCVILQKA
UniProt Q6NS38: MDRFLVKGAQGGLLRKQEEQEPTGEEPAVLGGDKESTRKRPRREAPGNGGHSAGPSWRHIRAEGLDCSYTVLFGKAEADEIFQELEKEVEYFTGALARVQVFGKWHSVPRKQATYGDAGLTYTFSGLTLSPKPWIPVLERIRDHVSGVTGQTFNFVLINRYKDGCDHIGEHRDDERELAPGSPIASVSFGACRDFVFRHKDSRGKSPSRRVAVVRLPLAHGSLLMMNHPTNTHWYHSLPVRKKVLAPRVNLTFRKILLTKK
UniProt Q13686: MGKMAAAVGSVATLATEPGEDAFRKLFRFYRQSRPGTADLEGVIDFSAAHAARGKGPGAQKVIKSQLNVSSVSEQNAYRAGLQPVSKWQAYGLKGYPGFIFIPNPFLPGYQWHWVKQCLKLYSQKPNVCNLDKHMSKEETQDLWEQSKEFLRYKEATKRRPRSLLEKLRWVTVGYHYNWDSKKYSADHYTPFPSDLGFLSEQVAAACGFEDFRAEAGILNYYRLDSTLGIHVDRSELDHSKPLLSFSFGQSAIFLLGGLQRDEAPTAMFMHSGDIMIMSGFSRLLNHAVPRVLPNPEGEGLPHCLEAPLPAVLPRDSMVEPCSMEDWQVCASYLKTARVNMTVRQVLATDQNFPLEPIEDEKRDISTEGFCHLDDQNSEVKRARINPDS
UniProt Q9H2P0: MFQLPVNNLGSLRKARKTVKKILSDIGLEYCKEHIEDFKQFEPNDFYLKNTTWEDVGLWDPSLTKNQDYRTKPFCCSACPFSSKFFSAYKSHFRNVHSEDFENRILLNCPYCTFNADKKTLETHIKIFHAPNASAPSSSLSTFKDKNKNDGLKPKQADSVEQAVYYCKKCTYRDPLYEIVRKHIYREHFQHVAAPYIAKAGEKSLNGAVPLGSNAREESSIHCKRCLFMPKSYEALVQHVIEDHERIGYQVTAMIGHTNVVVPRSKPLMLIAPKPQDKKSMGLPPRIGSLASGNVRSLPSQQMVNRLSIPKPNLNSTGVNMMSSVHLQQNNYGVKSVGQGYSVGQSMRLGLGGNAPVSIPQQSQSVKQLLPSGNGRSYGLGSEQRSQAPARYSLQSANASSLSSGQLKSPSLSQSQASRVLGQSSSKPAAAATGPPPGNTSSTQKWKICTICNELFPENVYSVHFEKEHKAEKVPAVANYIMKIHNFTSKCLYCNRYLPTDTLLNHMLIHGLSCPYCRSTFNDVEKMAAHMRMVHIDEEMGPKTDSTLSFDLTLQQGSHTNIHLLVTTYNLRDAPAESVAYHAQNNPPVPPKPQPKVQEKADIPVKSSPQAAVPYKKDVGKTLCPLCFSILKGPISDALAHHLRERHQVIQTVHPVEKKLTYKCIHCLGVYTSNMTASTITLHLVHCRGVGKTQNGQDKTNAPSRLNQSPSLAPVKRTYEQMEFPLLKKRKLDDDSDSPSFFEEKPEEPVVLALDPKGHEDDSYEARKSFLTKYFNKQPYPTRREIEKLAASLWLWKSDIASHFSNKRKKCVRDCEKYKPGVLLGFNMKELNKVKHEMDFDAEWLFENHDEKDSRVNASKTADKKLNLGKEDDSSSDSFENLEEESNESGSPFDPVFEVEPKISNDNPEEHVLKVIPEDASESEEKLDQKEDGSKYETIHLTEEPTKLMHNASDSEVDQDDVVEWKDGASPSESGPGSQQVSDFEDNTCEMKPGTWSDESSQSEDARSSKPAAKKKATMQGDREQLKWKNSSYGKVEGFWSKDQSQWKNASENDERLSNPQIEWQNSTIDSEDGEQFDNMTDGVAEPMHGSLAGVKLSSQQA
UniProt Q9NZD4: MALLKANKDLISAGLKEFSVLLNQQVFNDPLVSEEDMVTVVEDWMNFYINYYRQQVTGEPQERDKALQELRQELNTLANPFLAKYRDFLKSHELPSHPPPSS

Columns and labels:
Experiment in all cases: log2 fold change, soluble protein after heating vs DMSO (PISA); higher = thermal stabilisation; K562 cells, 10 uM, 30 min; active = over 0.2 and 3.5 SD of the protein, either way, in both replicates (recomputed)
[1] = compound: C1=CC(=C(C=C1Cl)C2=NC3=NC=CN=C3C(=N2)NC4=CC=NC=C4)F
In short: (§1)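 K562 cells at 2×10^6 cells/mL were exposed to 10 μM compound for 30 min, then aliquots were heated for 3 min across 48°C-58°C, pooled, and extracted in PBS containing 0.5% NP-40 at 4°C. The supernatant after 21,000xg for 90 min was taken as soluble protein and measured by TMTpro 16plex LC-MS/MS with channel sums equalised. Thermal stability is reported relative to control samples, with values from duplicates. Fold changes are given on a log2 scale.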

[2] = compound: C1=CC2=NC=CN=C2C=C1/C=C/3\C(=O)NC(=O)S3
In short: as §1

erlotinib = compound: C#Cc1cccc(Nc2ncnc3cc(OCCOC)c(OCCOC)cc23)c1 [erlotinib]
In short: as §1

[3] = compound: C1=CC(=CC=C1C2=NC3=C(N2)C=C(C=C3)C(=O)N)OC4=CC=C(C=C4)Cl
In short: as §1

[4] = compound: C1CCN(C1)C(=O)NC2=CC=CC(=C2)NC3=NC=C(C(=N3)NCCC4=CN=CN4)Br
In short: as §1

[5] = compound: C1CN(CCC1(CC2=CC=C(C=C2)Cl)N)C3=NC=NC4=C3C=CN4
In short: as §1

[6] = compound: C/C(=N\NC(=O)C1=CC(=CC=C1)S(=O)(=O)N2CCOCC2)/C3=C(C=CC(=C3)Cl)O
In short: as §1

[7] = compound: C1=CC2=C(C=CC(=C2)/C=C\3/C(=O)NC(=NCC4=CC=CS4)S3)N=C1
In short: as §1

[8] = compound: C1=CC=C(C=C1)C2=NC(=C(N2)C3=CC=NC=C3)C4=CC(=C(C=C4)Cl)O
In short: as §1

[9] = compound: C1=CC=C2C(=C1)C3=NNC4=CC=CC(=C43)C2=O
In short: as §1

Measured: log2 fold change

AKTIP isoform 2 (UniProt Q9H8T0)
inactive: [1] -0.07 | [2] -0.125

ADGRV1 (UniProt Q8WXG9)
inactive: [1] -0.018 | [2] 0.098

AMOTL1 (UniProt Q8IY63)
inactive: [2] -0.045

ADGB (UniProt Q8N7X0)
inactive: [1] -0.278

ALDOB (UniProt P05062)
inactive: [1] 0.407

ALDH7A1 (UniProt P49419)
inactive: [1] 0.019

AGTRAP isoform 2 (UniProt Q6RW13)
inactive: erlotinib 0.071 | [3] -0.032 | [4] 0.121 | [5] -0.017

AMDHD2 (UniProt Q9Y303)
inactive: erlotinib 0.005 | [3] 0.071 | [4] -0.02 | [5] 0.078

ADCY7 (UniProt P51828)
inactive: [6] 0.403 | [1] 0.051 | [7] -0.123 | [8] -0.198 | [9] -0.274

ADD1 isoform 4 (UniProt P35611)
inactive: [1] 0.169 | [2] -0.019

2 records drawn at random from those above:
ALDH7A1 (UniProt P49419)
inactive: [1] 0.019

AMDHD2 (UniProt Q9Y303)
inactive: erlotinib 0.005 | [3] 0.071 | [4] -0.02 | [5] 0.078

Continued:

ADD2 isoform 9 (UniProt P35612)
inactive: [2] -0.025 | [8] 0.203

ALDH2 isoform 2 (UniProt P05091)
inactive: [6] -0.197 | [1] -0.106 | [7] 0.6 | [2] 0.07 | [8] -0.263 | [9] 0.131 | [4] 0.208 | [5] 0.032

AMZ2 (UniProt Q86W34)
inactive: [1] 0.244 | [8] 0.092

AMBRA1 isoform 5 (UniProt Q9C0C7)
inactive: [6] 0.068 | [1] -0.076 | [7] 0.076 | [2] 0.034 | [9] 0.018 | [4] -0.009 | [5] 0.203

ADGRD1 isoform 4 (UniProt Q6QNK2)
inactive: [6] 0.12 | [7] 0.166 | [9] -0.024 | [4] -0.035 | [5] 0

ALKBH8 isoform 4 (UniProt Q96BT7)
inactive: [1] 0.093 | [2] -0.001

AKR1D1 (UniProt P51857)
inactive: [6] -0.008 | [7] 0.023 | [2] -0.012 | [9] -0.072 | [4] -0.023 | [5] -0.395

ALOX5 (UniProt P09917)
inactive: [4] 0.031 | [5] 0.07

ALKBH2 (UniProt Q6NS38)
inactive: [6] -0.135 | [1] -0.196 | [7] -0.074 | [2] -0.072 | [8] -0.037 | [9] -0.127 | [4] -0.008 | [5] -0.086

ALG13 isoform 2 (UniProt Q9NP73)
inactive: [6] 0.182 | [1] 0.038 | [7] -0.017 | [2] 0.096 | [9] -0.076

AGTPBP1 isoform 3 (UniProt Q9UPW5)
inactive: [8] 0.06

ALKBH1 (UniProt Q13686)
inactive: [6] -0.301 | [1] 0.118 | [7] 0.337 | [2] 0.029 | [8] -0.042 | [9] -0.117 | [4] -0.17 | [5] 0.127

ADNP (UniProt Q9H2P0)
inactive: [6] -0.036 | [7] 0.032 | [9] -0.019

AHSP (UniProt Q9NZD4)
inactive: erlotinib -0.043 | [3] 0.277 | [8] 0.062
